Source: the supplement of paper PMC6078165

Tested on: BT20
Assay: relative JC-1 red fluorescence (viability) vs pre-drug, coculture with fibroblast (fraction); higher = more viable cancer cells
Method: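 JC-1 labelled TNBC cells cocultured 1:1 (1,500 cells each) with CellTrace Violet stained primary or stromal fibroblasts in 384-well plates in FluoroBrite medium, treated with one of 42 anticancer drugs at 0.1, 1, 10 or 100 uM. JC-1 red fluorescence (mitochondrial integrity in cancer cells only) was read by plate reader every 8 h for 72 h. Values are normalised to each well's pre-drug value. The stock of one drug was tenfold lower, so its dose labels may be too high.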

CN(Cc1cnc2nc(N)nc(N)c2n1)c1ccc(C(=O)N[C@@H](CCC(=O)O)C(=O)O)cc1 [Methotrexate]
relative JC-1 red fluorescence
Conditions	8 h	16 h	24 h	32 h	40 h	48 h	56 h	64 h	72 h
0.1 µM, coculture fibroblast: C12385	0.9125 ± 0.0078	0.822 ± 0.024	0.78 ± 0.028	0.716 ± 0.015	0.661 ± 0.027	0.639 ± 0.025	0.622 ± 0.02	0.611 ± 0.01	0.601 ± 0.021
0.1 µM, coculture fibroblast: H6013	0.939 ± 0.018	0.8766 ± 0.0035	0.858 ± 0.043	0.824 ± 0.056	0.791 ± 0.08	0.781 ± 0.081	0.793 ± 0.097	0.789 ± 0.094	0.777 ± 0.095
0.1 µM, coculture fibroblast: H6019	0.8549 ± 0.007	0.766 ± 0.018	0.747 ± 0.015	0.688 ± 0.015	0.6442 ± 0.0029	0.6286 ± 0.0038	0.5998 ± 0.0015	0.5833 ± 0.0028	0.5746 ± 0.004
0.1 µM, coculture fibroblast: H6076	0.858 ± 0.12	0.897 ± 0.021	0.829 ± 0.018	0.7883 ± 0.0045	0.755 ± 0.015	0.729 ± 0.019	0.727 ± 0.022	0.726 ± 0.032	0.714 ± 0.046
0.1 µM, coculture fibroblast: H6231	0.877 ± 0.031	0.945 ± 0.041	0.818 ± 0.023	0.742 ± 0.016	0.691 ± 0.02	0.648 ± 0.014	0.608 ± 0.01	0.588 ± 0.013	0.56 ± 0.016
0.1 µM, coculture fibroblast: HADF	0.787 ± 0.12	0.956 ± 0.06	0.8796 ± 0.0046	0.856 ± 0.035	0.869 ± 0.0088	0.864 ± 0.043	0.8275 ± 0.0066	0.844 ± 0.058	0.848 ± 0.11
0.1 µM, coculture fibroblast: HCFa	0.828 ± 0.17	0.923 ± 0.074	0.913 ± 0.096	0.871 ± 0.14	0.846 ± 0.19	0.828 ± 0.2	0.819 ± 0.25	0.748 ± 0.21	0.691 ± 0.19
0.1 µM, coculture fibroblast: HCPF	0.916 ± 0.067	0.856 ± 0.032	0.782 ± 0.034	0.736 ± 0.028	0.702 ± 0.02	0.664 ± 0.016	0.6278 ± 0.0012	0.6195 ± 0.0022	0.592 ± 0.011
0.1 µM, coculture fibroblast: HHSteC	0.934 ± 0.037	0.863 ± 0.058	0.844 ± 0.1	0.776 ± 0.12	0.747 ± 0.14	0.718 ± 0.16	0.688 ± 0.16	0.668 ± 0.16	0.642 ± 0.15
0.1 µM, coculture fibroblast: HMF	0.955 ± 0.022	0.861 ± 0.022	0.762 ± 0.034	0.703 ± 0.044	0.656 ± 0.042	0.616 ± 0.032	0.593 ± 0.052	0.564 ± 0.05	0.549 ± 0.054
0.1 µM, coculture fibroblast: HPFa	0.833 ± 0.17	0.912 ± 0.078	0.884 ± 0.04	0.84 ± 0.087	0.848 ± 0.12	0.83 ± 0.12	0.803 ± 0.11	0.791 ± 0.092	0.757 ± 0.08
0.1 µM, coculture fibroblast: HUF	0.941 ± 0.016	0.84 ± 0.0076	0.802 ± 0.014	0.718 ± 0.024	0.661 ± 0.037	0.615 ± 0.037	0.591 ± 0.053	0.571 ± 0.053	0.553 ± 0.058
0.1 µM, coculture fibroblast: Hs5	0.916 ± 0.11	0.919 ± 0.0051	0.857 ± 0.015	0.813 ± 0.021	0.775 ± 0.024	0.743 ± 0.03	0.715 ± 0.035	0.688 ± 0.043	0.675 ± 0.044
0.1 µM, coculture fibroblast: Hs27A	0.86 ± 0.079	0.86 ± 0.17	0.905 ± 0.061	0.89 ± 0.046	0.862 ± 0.067	0.84 ± 0.063	0.842 ± 0.075	0.84 ± 0.081	0.824 ± 0.094
0.1 µM, coculture fibroblast: Hs343T	0.947 ± 0.071	0.857 ± 0.061	0.763 ± 0.057	0.701 ± 0.049	0.652 ± 0.035	0.607 ± 0.022	0.563 ± 0.013	0.5545 ± 0.0032	0.5271 ± 0.0046
0.1 µM, coculture fibroblast: WS1	0.888 ± 0.011	0.836 ± 0.031	0.79 ± 0.017	0.731 ± 0.01	0.67 ± 0.0067	0.634 ± 0.011	0.608 ± 0.0076	0.583 ± 0.015	0.58 ± 0.013
1 µM, coculture fibroblast: C12385	0.9216 ± 0.007	0.78 ± 0.04	0.735 ± 0.048	0.663 ± 0.033	0.604 ± 0.048	0.576 ± 0.048	0.556 ± 0.059	0.543 ± 0.053	0.537 ± 0.052
1 µM, coculture fibroblast: H6013	0.9305 ± 0.006	0.829 ± 0.012	0.805 ± 0.041	0.757 ± 0.036	0.726 ± 0.046	0.713 ± 0.051	0.72 ± 0.05	0.714 ± 0.05	0.707 ± 0.053
1 µM, coculture fibroblast: H6019	0.875 ± 0.034	0.794 ± 0.031	0.797 ± 0.028	0.751 ± 0.03	0.715 ± 0.033	0.701 ± 0.019	0.669 ± 0.0037	0.6552 ± 0.0027	0.647 ± 0.012
1 µM, coculture fibroblast: H6076	0.897 ± 0.058	0.829 ± 0.034	0.752 ± 0.02	0.72 ± 0.015	0.694 ± 0.012	0.6776 ± 0.0027	0.6813 ± 0.0026	0.682 ± 0.0025	0.679 ± 0.022
1 µM, coculture fibroblast: H6231	0.8298 ± 0.0071	0.933 ± 0.015	0.773 ± 0.021	0.701 ± 0.019	0.65 ± 0.018	0.599 ± 0.0068	0.567 ± 0.0016	0.537 ± 0.0056	0.505 ± 0.0075
1 µM, coculture fibroblast: HADF	0.97 ± 0.023	0.89 ± 0.061	0.861 ± 0.09	0.816 ± 0.12	0.802 ± 0.15	0.783 ± 0.18	0.778 ± 0.2	0.78 ± 0.22	0.779 ± 0.26
1 µM, coculture fibroblast: HCFa	0.905 ± 0.019	0.807 ± 0.015	0.765 ± 0.018	0.703 ± 0.012	0.663 ± 0.0088	0.6429 ± 0.0064	0.618 ± 0.017	0.6 ± 0.022	0.567 ± 0.024
1 µM, coculture fibroblast: HCPF	0.87 ± 0.11	0.858 ± 0.01	0.7855 ± 0.0044	0.726 ± 0.0075	0.692 ± 0.012	0.65 ± 0.023	0.617 ± 0.018	0.6 ± 0.017	0.577 ± 0.015
1 µM, coculture fibroblast: HHSteC	0.909 ± 0.011	0.826 ± 0.039	0.804 ± 0.042	0.728 ± 0.057	0.688 ± 0.066	0.656 ± 0.076	0.648 ± 0.096	0.626 ± 0.1	0.609 ± 0.11
1 µM, coculture fibroblast: HMF	0.974 ± 0.017	0.839 ± 0.024	0.736 ± 0.028	0.667 ± 0.033	0.622 ± 0.03	0.568 ± 0.029	0.542 ± 0.013	0.5173 ± 0.0034	0.487 ± 0.0096
1 µM, coculture fibroblast: HPFa	0.958 ± 0.012	0.8647 ± 0.006	0.8885 ± 0.0069	0.819 ± 0.018	0.809 ± 0.032	0.778 ± 0.04	0.769 ± 0.055	0.765 ± 0.06	0.759 ± 0.077
1 µM, coculture fibroblast: HUF	0.9196 ± 0.00056	0.816 ± 0.017	0.7912 ± 0.0052	0.719 ± 0.014	0.671 ± 0.016	0.631 ± 0.016	0.604 ± 0.012	0.591 ± 0.012	0.581 ± 0.028
1 µM, coculture fibroblast: Hs5	0.835 ± 0.18	0.864 ± 0.027	0.8119 ± 0.0015	0.7732 ± 0.0019	0.739 ± 0.015	0.705 ± 0.017	0.678 ± 0.016	0.659 ± 0.011	0.642 ± 0.009
1 µM, coculture fibroblast: Hs27A	0.742 ± 0.029	0.896 ± 0.08	0.778 ± 0.12	0.901 ± 0.05	0.814 ± 0.011	0.862 ± 0.073	0.854 ± 0.072	0.747 ± 0.06	0.73 ± 0.052
1 µM, coculture fibroblast: Hs343T	0.963 ± 0.051	0.834 ± 0.013	0.74 ± 0.026	0.67 ± 0.036	0.623 ± 0.035	0.577 ± 0.041	0.534 ± 0.053	0.522 ± 0.061	0.496 ± 0.063
1 µM, coculture fibroblast: WS1	0.9 ± 0.046	0.776 ± 0.015	0.796 ± 0.01	0.7457 ± 0.0043	0.7029 ± 0.0011	0.6849 ± 0.0012	0.674 ± 0.015	0.658 ± 0.02	0.668 ± 0.03

± gives the standard deviation of the averaged measurements. Values are relative to the signal before dosing, not to a vehicle control; the signal also falls without drug.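 Fibroblast labels denote human fibroblasts, mainly primary ones from uterus (C12385, HUF), lung (H6013), bone (Hs27A), adrenal (HADF) and skin (WS1), plus mammary HMF and breast cancer-associated Hs343T. Cancer cells are basal-like or mesenchymal-like triple-negative breast cancer lines. A hit is a response shift exceeding 3x replicate standard deviation. The tissue of the other fibroblasts is not given here.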
